From patent US8383887B2, “Methods of using plants containing the gdhA gene” (Southern Illinois University Carbondale, priority 2009, dated 2013)

System: gdhA+ Nicotiana tabacum plants
Assay: Metabolites with altered abundance in leaf and root extracts of gdhA+ vs gdhA− Nicotiana tabacum
Conditions: fatty acids (Table 6Ii); tissue not given

| Compound | Percent Change [%] |
| --- | --- |
| CCCCCCCCCC/C=C/C(=O)O [trans-2-Tridecenoic acid] | 50 |
| CCCCCC/C=C\CCCCCCCC(=O)O [Palmitoleic Acid] | 29 |
| CCCCCCCCC(=O)O [Pelargonic acid] | 13 |
| CCCCCCCCCCCC(=O)O [Lauric acid] | 14 |
| CCCCCCCC/C=C\CCCCCCCC(=O)O [Oleic acid] | 32 |
| CCCCCCCCCCCCCCCCCCCCCCC(=O)O [Tricosanoic acid] | 13 |
| O=C(O)CCCCCCCCCCCCC(=O)O [Tetradecanedioic acid] | 13 |

Same assay, conditions: leaf extracts, Nicotiana tabacum; % changes are ±2%

| Compound | Percent Change in abundance in gdhA+ plants compared to gdhA− plants [%] |
| --- | --- |
| COc1ccc2[nH]cc(CCN(C)C)c2c1 [N,N-dimethyl-5-methoxytryptamine] | 294 |
| N#CC(=O)c1ccco1 [2-furylglyoxylonitrile] | 182 |
| CCOC(=O)N1CCN(C(=O)OCC)CC1 [Diethyl 1,4 piperazine dicarboxylate] | 54 |
| CC(C)(C)OC(=O)NC(Cc1c[nH]c2ccccc12)C(=O)O [N-alpha-BOC-L-tryptophan] | 333 |
| CCCCCC/C=C\CCCCCCCC(=O)O [Palmitoleic Acid] | 12 |
| CCCCCCCCCCCCCCCCCCCCCCC(=O)OCC [Ethyl tricosanoate] | 24 |
| CC(=O)c1ccccc1 [Acetophenone] | 238 |
| CC(=O)O.CC(=O)O.O=C1c2ccccc2C(=O)c2c(NCCNCCO)ccc(NCCNCCO)c21 [1,4-bis(2-(2-hydroxyethyl)amino) ethyl) amino)-9,10-anthrancenedione diacetate] | 345 |
| C=CCC1CCCC1C1C(=O)NC(=O)N(C)C1=O (centres unmarked) [N-methyl-5-allyl-cyclopentylbarbituric acid] | 208 |
| CCCCCCCC/C=C\CCCCCCCC(=O)O [Oleic acid] | 14 |
| CCOC(=O)/C=C/C(=O)O [Fumaric acid, monoethyl ester] | 56 |
| NC(=O)Cc1nc(-c2ccccc2)cs1 [4-phenyl-2-thiazoleethanamide] | 47 |
| O=C(O)C(=O)C[C@H](O)[C@@H](O)[C@@H](O)[C@H](O)[C@H](O)CO [3-Deoxy-D-glycero-D-galacto-2-nonulosonic Acid] | 159 |
| O=C(O)C1CC(O)C=N1 (centres unmarked) [3-hydroxy-1-pyrroline-delta-carboxylate] | 133 |
| O=NN1CCCC1 [N-Nitrosopyrrolidine] | 152 |

Same assay, conditions: leaf extracts; gdhA+ plants compared to gdhA− plants; % changes are ±2%

| Compound | Percent Change [%] |
| --- | --- |
| N#CC(=O)c1ccco1 [2-furylglyoxylonitrile] | 182 |
| CCOC(=O)N1CCN(C(=O)OCC)CC1 [Diethyl 1,4 piperazine dicarboxylate] | 54 |
| CC(=O)O.CC(=O)O.O=C1c2ccccc2C(=O)c2c(NCCNCCO)ccc(NCCNCCO)c21 [1,4-bis(2-(2-hydroxyethyl)amino) ethyl) amino)-9,10-anthrancenedione diacetate] | 345 |
| C=CCC1CCCC1C1C(=O)NC(=O)N(C)C1=O (centres unmarked) [N-methyl-5-allyl-cyclopentylbarbituric acid] | 208 |
| NC(=O)Cc1nc(-c2ccccc2)cs1 [4-phenyl-2-thiazoleethanamide] | 47 |
| O=NN1CCCC1 [N-Nitrosopyrrolidine] | 152 |

Same assay, conditions: leaf extracts; metabolite abundance, gdhA+ vs gdhA− Nicotiana tabacum

| Compound | Percent Change [%] |
| --- | --- |
| CC(C)(C)OC(=O)NC(Cc1c[nH]c2ccccc12)C(=O)O [N-alpha-BOC-L-tryptophan] | 333 |
| NC(=O)C[C@H](N)C(=O)O [Asparagine] | 455 |
| N=C(N)NCCC[C@H](N)C(=O)O [Arginine] | 127 |
| O=C(O)C1CC(O)C=N1 (centres unmarked) [3-hydroxy-1-pyrroline-delta-carboxylate] | 133 |

Same assay, conditions: root extracts, Nicotiana tabacum; % changes are ±2%

| Compound | Percent Change in abundance in gdhA+ plants compared to gdhA− plants |
| --- | --- |
| CCCOS(=O)(=O)OCCC [Sulfuric acid dipropyl ester] | 56% |
| Cc1ccccc1NC(=N)Nc1ccccc1C [1,3-Di-o-tolylguanidine] | 400% |
| CCCCCCCCCCCCCCCCCC(=O)OCCC [Propyl stearate] | 18% |
| N[C@@H](C=O)[C@@H](O)[C@H](O)[C@H](O)CO [2-amino-2-deoxy-D-glucose] | 276% |
| CCC/C=C\C(N)=O [cis-2-hexenoic acid amide] | 26% |
| COCC(O)CO (centres unmarked) [3-Methoxy-1,2-propanediol] | 40% |
| 4,4′-Dimethylcholestatrienol | 16% |
| O=C1CCCCCCCCCCCCCCC1 [Cyclohexadecanone] | 18% |
| CC1(C)C2CCC(=O)C1C2 (centres unmarked) [Nopinone] | 20% |
| C1CN2CCC1N1CCC2CC1 [1,5-diaatricyclo[4.2.2.2(2,5)]dodecane] | 625% |
| COc1ccccc1OCC(O)COC(N)=O (centres unmarked) [Methocarbamol] | 244% |
| CCCCCC/C=C\CCCCCCCC(=O)O [Palmitoleic Acid] | 29% |
| CCCCCCCCCCCCCCCCCCCCCCC(=O)OCC [Ethyl tricosanoate] | 7% |
| CC(=O)c1ccccc1 [Acetophenone] | 54% |
| CC1(C)CCCC(C)(C)N1N=O [2,2,6,6-tetramethyl-N-nitrosopiperidine] | 29% |
| CCCCCCCCC(=O)O [Pelargonic acid] | 13% |
| CCCCC(CCCC)(C(=O)OCC)C(=O)OCC [Propanedioic acid, dibutyl-, diethyl ester] | 70% |
| CN(C)CCC1CN(C)C(=S)c2cccnc2O1 (centres unmarked) [Rocastine] | 276% |
| CCCCCCCCCCCC(=O)O [Lauric acid] | 21% and 14% |
| CC(=O)N[C@@H](Cc1ccc(O)cc1)C(=O)O [N-acetyl-L-tyrosine] | 49% |
| CC(=O)O[C@@H]1[C@@H](OC(C)=O)[C@@H]2OC[C@@H](O2)[C@H]1OC(C)=O [1,6-Anhydro-beta-D-glucopyranose 2,3,4-Triacetate] | 588% |
| CC(=O)N1CCC(C(=O)O)CC1 [1-Acetyl-4-piperidinecarboxylic acid] | 270% |
| NC(=O)CC[C@H](NC(=O)CC[C@H](N)C(=O)O)C(=O)O [(gamma-L-glutamyl)-L-glutamine] | 263% |
| CNCCc1ccc(O)c(O)c1 [Epinine] | 222% |

| Compound | Percent Change in abundance in gdhA+ plants compared to gdhA− plants |
| --- | --- |
| OC[C@@]12OC[C@@H](O1)[C@@H](O)[C@@H](O)[C@@H]2O [Sedoheptulose anhydride] | 909% |
| CC(=O)Nc1cnc2ccccc2c1 [3-acetylaminoquinoline] | 34% |
| CCCCCCC1CC(=O)O1 (centres unmarked) [Gamma-Nonanolactone] | 43% |
| 2,2′-ethyledene bis(4,6-di-t-butyl | 12% |
| CCCCCCC(=O)CCCCCCCCCCC(=O)OC [Octadecanoic acid, 12-oxo-, methyl ester] | 14% |
| CCCCCCCCCCCCCC(N)=O [Tetradecanamide] | 23% |
| CCCCCCCC=CC(=O)O [2-Decenoic Acid] | 56% |
| CO[C@]1(C)CC[C@@]23C[C@@H]1C(C)(C)[C@@H]2CC[C@H]3C [Cedrol methyl ether] | 21% |
| O=C1C=c2cc[nH]c2=CC1=O [Indole-5,6-quinone] | 40% |
| CC(C)(C)[C@@H]1CCC[C@H](C(C)(C)C)C1=O [cis-2,6-Di-tert-butylcyclohexanone] | 35% |
| CCCCCCCC/C=C\CCCCCCCC(=O)O [Oleic acid] | 19% and 32% |
| CCCCCCCCCCCCCCCCCCCCCCC(=O)O [Tricosanoic acid] | 10% and 13% |
| CCCCCCOc1cc(C)c(O)c(C)c1C [1-O-Hexyl-2,3,5-trimethylhydroquinone] | 179% |
| CCOC(=O)/C=C/C(=O)O [Fumaric acid, monoethyl ester] | 345% |
| O=C(O)C1=NCCC1 [delta1-Pyrroline 2-carboxylate] | 217% |
| CCCCCCCCCCCCOCC(OCC)C(=O)OC (centres unmarked) [Propionic acid, 3-dodecyloxy-2-ethoxy-, methyl ester] | 556% |
| O=C(O)CCCCCCCCCCCCC(=O)O [Tetradecanedioic acid] | 13% |
| CCC/C=C\[C@@H](/C=C/C=C\CCCCCCCC(=O)O)OO [(9Z,11E,14Z)-(13S)-Hydroperoxyoctadeca-(9,11,14)-trienoate] | 238% and 386% |
| O=C(O)C(=O)C[C@H](O)[C@@H](O)[C@@H](O)[C@H](O)[C@H](O)CO [3-Deoxy-D-glycero-D-galacto-2-nonulosonic Acid] | 233% |
| O=C1C(=O)C2C=CC1O2 [7-Oxabicyclo[2.2.1]hept-5-ene-2,3-dione] | 41% |
| COc1nccnc1C [2-methoxy-3-methyl-pyrazine] | 51% |
| C=CCC1(CCCC)C(=O)NC(=O)NC1=O [5-allyl-5-butylbarbituric acid] | 22% |
| O=NN1CCCC1 [N-Nitrosopyrrolidine] | 714% |

Same assay, conditions: root extracts; gdhA+ plants compared to gdhA− plants; % changes are ±2%

| Compound | Percent Change [%] |
| --- | --- |
| CCCOS(=O)(=O)OCCC [Sulfuric acid dipropyl ester] | 56 |
| C1CN2CCC1N1CCC2CC1 [1,5-diaatricyclo [4.2.2.2(2,5)]dodecane] | 625 |
| Cc1ccccc1NC(=N)Nc1ccccc1C [1,3-Di-o-tolylguanidine] | 400 |
| CCC/C=C\C(N)=O [cis-2-hexenoic acid amide] | 26 |
| COCC(O)CO (centres unmarked) [3-Methoxy-1,2-propanediol] | 40 |
| O=C1CCCCCCCCCCCCCCC1 [Cyclohexadecanone] | 18 |
| COc1ccccc1OCC(O)COC(N)=O (centres unmarked) [Methocarbamol] | 244 |
| CC1(C)CCCC(C)(C)N1N=O [2,2,6,6-tetramethyl-N-nitrosopiperidine] | 29 |
| CN(C)CCC1CN(C)C(=S)c2cccnc2O1 (centres unmarked) [Rocastine] | 276 |
| CCCCCCCCCCCCN1CCCC1=O [1-Lauryl-2-pyrrolidone] | 29 |
| CC(=O)N1CCC(C(=O)O)CC1 [1-Acetyl-4-piperidinecarboxylic acid] | 270 |
| CCCCCCC1CC(=O)O1 (centres unmarked) [Gamma-Nonanolactone] | 43 |
| 2,2′-ethyledene bis(4,6-di-t-butyl | 12 |
| CCCCCCCCCCCCCC(N)=O [Tetradecanamide] | 23 |
| CCCCCCCC=CC(=O)O [2-Decenoic Acid] | 56 |
| O=C1C(=O)C2C=CC1O2 [7-Oxabicyclo[2.2.1]-hept-5-ene-2,3-dione] | 41 |
| CO[C@]1(C)CC[C@@]23C[C@@H]1C(C)(C)[C@@H]2CC[C@H]3C [Cedrol methyl ether] | 21 |
| CC(C)(C)[C@@H]1CCC[C@H](C(C)(C)C)C1=O [cis-2,6-Di-tert-butylcyclohexanone] | 35 |
| CCCCCCCCCCCCOCC(OCC)C(=O)OC (centres unmarked) [Propionic acid, 3-dodecyloxy-2-ethoxy-, methyl ester] | 556 |
| COc1nccnc1C [2-methoxy-3-methyl-pyrazine] | 51 |
| C=CCC1(CCCC)C(=O)NC(=O)NC1=O [5-allyl-5-butylbarbituric acid] | 22 |
| O=NN1CCCC1 [N-Nitrosopyrrolidine] | 714 |
| C1=Cc2ccccc2Nc2ccccc21 [o,o′-Iminostilbene] | 13 |

Same assay, conditions: root extracts; metabolite abundance, gdhA+ vs gdhA− Nicotiana tabacum

| Compound | Percent Change [%] |
| --- | --- |
| CC(C)[C@H](N)C(=O)O [Valine] | 435 |
| CC(=O)N[C@@H](Cc1ccc(O)cc1)C(=O)O [N-acetyl-L-tyrosine] | 49 |
| NC(=O)C[C@H](N)C(=O)O [Asparagine] | 1111 |
| NC(=O)CC[C@H](NC(=O)CC[C@H](N)C(=O)O)C(=O)O [(gamma-L-glutamyl)-L-glutamine] | 263 |
| N=C(N)NCCC[C@H](N)C(=O)O [Arginine] | 222 |
| O=C(O)C1=NCCC1 [delta1-Pyrroline 2-carboxylate] | 217 |
| C[C@@H](O)[C@H](N)C(=O)O [Threonine] | 435 |
| O=C(O)C1CC(O)C=N1 (centres unmarked) [3-hydroxy-1-pyrroline-delta-carboxylate] | 244 |

Several values for one entry are separate records, joined by “and”; a condition that tells them apart may be missing. Equal values may be shown once.
